Measurements as given in patent US20250019454A1.

molecular target: His-tagged monkey (Crab-eating monkey) TNFR2 (Sino Biological, Cat #: 90102-C08H) (monkey (Crab-eating monkey)); assay: SPR Biacore 8K

| binding | Binder |
| --- | --- |
| binds | BC-1B6-IgG1 (antibody, V domains shown) VH: QVQLVESGGGVVQPGRSLRLSCAASGFTFSNFGMHWVRQAPGKGLEWVAVIWYEGSDKYYADSVKGRFTISRDNSKNTLYLQMNSLRAEDTAVYYCARDSSWGFLLYGMDVWGQGTTVTVSS VL: DVVMTQSPLSLPVTLGQPASISCRSSRSLEYSDGNTYLNWFQQRPGQSPRRLIYKVSNRDSGVPDRFSGSGSGTAFTLKISGVEAEDVGVYYCMQGTHWPPTFGGGTKVEIK |
| binds | BC-1C3-IgG1 (antibody, V domains shown) VH: QVQLVESGGGVVHPGKSLRLSCAASGFTFNIYGMHWVRQAPGKGLEWVALISYDGNDKYFADSVKGRFTISRDNSKNTLYLQMNSLRAEDTAVYYCAKAVDTAVVTFFDYWGQGTLVTVSS VL: EIVMTQSPVTLSVSPGERATLSCRASQSVSSNLAWYQQKPGQAPRLLIYSASTRATGIPARFSGSGSGTEFTLTISSLQSEDLAVYYCQQYSNWPFTFGPGTKVDIK |
| binds | BC-1F4-IgG1 (antibody, V domains shown) VH: QVQLQQSGPGLVKPSQTLSLTCAISGDSVSSDSSAWNWIRQSPSRGLEWLGRTYYRSKWYNDYTVSVKSRITINPDTSKNQFSLQLNSVTPEDTAVYYCAREDGVGGTKDYFDYWGQGTLVTVSS VL: DIQMTQSPSSLSASVGDRVTITCQASQDISNYLNWYQQKPGKAPKLLIYDASNLETGVPSRFSGSGSGTDFTFTINSLQPEDFATYFCQQYDNLPITFGQGTRLEIK |

No constants are given. Whether binding was seen depends on the method and setting. A result given as binding can be weak or reduced; the word gives no strength.
